# Results of single-concentration screens

The chains behind the UniProt entries cited, without tags or fusion partners.
UniProt P9WPC5, whole entry: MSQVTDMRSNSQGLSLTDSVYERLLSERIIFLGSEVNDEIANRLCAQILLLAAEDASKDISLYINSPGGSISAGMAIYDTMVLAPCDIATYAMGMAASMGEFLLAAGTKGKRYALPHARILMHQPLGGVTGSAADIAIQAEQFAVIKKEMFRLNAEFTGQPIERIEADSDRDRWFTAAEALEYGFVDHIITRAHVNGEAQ
UniProt P9WPC3, whole entry partner: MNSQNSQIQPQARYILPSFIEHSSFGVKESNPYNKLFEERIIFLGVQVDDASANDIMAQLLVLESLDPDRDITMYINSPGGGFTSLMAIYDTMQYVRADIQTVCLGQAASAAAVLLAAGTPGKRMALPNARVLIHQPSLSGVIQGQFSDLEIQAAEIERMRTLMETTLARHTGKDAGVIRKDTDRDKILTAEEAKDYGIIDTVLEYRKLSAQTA
UniProt I6X8D2, whole entry: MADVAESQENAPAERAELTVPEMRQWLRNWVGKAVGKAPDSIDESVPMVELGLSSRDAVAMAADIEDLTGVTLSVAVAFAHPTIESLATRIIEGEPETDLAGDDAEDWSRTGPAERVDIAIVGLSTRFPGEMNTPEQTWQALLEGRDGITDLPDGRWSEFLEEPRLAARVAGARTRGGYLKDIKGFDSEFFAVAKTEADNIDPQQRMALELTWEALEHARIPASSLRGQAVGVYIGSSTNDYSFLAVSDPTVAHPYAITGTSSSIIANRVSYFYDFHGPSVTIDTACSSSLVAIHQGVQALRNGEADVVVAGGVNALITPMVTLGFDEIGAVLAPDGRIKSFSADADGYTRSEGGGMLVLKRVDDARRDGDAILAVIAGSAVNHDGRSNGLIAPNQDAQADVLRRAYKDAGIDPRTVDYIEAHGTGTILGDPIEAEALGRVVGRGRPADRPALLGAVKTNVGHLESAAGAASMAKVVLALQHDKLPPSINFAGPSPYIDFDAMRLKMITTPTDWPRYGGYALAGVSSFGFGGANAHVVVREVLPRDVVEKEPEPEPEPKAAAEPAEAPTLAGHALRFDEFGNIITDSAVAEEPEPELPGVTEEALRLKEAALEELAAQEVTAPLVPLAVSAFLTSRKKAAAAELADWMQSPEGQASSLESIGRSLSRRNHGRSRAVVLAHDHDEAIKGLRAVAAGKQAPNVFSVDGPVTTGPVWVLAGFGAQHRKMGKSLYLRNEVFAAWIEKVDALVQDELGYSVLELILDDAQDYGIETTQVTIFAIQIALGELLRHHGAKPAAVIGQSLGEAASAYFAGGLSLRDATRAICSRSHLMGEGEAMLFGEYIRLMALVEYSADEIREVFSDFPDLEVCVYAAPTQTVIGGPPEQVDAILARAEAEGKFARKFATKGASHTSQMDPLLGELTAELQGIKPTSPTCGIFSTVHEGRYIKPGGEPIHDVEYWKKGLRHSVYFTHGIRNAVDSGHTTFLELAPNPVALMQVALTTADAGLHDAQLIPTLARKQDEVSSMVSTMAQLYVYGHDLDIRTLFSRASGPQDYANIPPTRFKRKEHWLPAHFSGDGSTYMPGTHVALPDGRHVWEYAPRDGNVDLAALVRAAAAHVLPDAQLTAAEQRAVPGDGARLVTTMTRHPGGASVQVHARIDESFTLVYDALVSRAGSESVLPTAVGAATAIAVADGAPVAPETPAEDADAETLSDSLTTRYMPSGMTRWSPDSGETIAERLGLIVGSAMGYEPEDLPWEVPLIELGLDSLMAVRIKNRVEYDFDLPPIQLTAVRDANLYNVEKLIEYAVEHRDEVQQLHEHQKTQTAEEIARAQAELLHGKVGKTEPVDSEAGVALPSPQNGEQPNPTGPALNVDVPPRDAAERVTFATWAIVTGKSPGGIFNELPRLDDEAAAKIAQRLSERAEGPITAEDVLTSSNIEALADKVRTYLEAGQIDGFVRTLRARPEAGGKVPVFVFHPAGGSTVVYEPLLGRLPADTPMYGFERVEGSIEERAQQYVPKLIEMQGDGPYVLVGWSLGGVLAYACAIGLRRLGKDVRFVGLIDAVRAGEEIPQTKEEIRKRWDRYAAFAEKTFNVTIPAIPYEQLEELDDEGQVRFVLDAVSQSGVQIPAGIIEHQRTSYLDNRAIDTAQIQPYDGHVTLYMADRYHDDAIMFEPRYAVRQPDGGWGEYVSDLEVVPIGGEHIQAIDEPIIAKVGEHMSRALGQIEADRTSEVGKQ
UniProt P9WFT3, whole entry: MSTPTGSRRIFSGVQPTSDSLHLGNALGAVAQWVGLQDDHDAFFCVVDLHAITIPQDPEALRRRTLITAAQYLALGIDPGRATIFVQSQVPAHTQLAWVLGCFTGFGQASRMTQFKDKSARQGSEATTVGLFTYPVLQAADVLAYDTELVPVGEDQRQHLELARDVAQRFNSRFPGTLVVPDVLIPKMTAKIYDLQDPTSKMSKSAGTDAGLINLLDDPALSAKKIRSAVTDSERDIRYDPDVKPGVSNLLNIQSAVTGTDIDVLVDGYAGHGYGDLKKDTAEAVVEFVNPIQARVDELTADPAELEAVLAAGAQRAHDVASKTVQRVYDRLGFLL

From ChEMBL document CHEMBL3988442, “University of Dundee, Small-Polar-MMV Screening Library” (2021).

Each number is a percent effect as filed.
How 0% and 100% were set is not recorded. Most values in the screen are low, and negative values occur.
Compounds were drawn at random from those tested, without regard to their results.

ClpP1P2: 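ClpP1P2, Mycobacterium tuberculosis (UniProt P9WPC5 and UniProt P9WPC3). Protease assay of ClpP1P2, read by the AMC dye that it sets free. Compounds at 50 µM. Higher reads as stronger inhibition, judged from the few compounds that gave an IC50. Most other retested compounds had strongly negative values. Of about 69,000 compounds tested this way, about 10 (0.015%) reached 50% or more in at least one test.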
Pks13 thioesterase: 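Polyketide synthase Pks13, Mycobacterium tuberculosis (UniProt I6X8D2). Enzyme assay of the thioesterase domain of polyketide synthase 13; the read-out is not stated. Compounds at 30 µM. Higher reads as stronger inhibition (inferred from which compounds were picked for retests). About 67,000 compounds were tested under these conditions; 0.46% (about 300) showed 50% or more at least once.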
MtTrpRS: 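Tryptophan-tRNA ligase, Mycobacterium tuberculosis (UniProt P9WFT3). Enzyme assay of tryptophanyl-tRNA synthetase; the read-out is not stated. Compounds at 10 µM. Direction is not recorded; retested compounds ran higher, which suggests that high means inhibition. Size under these conditions: about 65,000 compounds, about 64 of them at 50% or above in at least one test.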

Cc1csc(C2CCCCN2C(=O)Cn2cncn2)n1 (stereo not given) gave ClpP1P2: 1.833%; Pks13 thioesterase: -37.65%; MtTrpRS: 6.621%.
CC(C)c1ncc2c(n1)CN(Cc1nc3c(F)cccc3[nH]1)CC2 gave ClpP1P2: 1.011%; Pks13 thioesterase: -30.36%; MtTrpRS: -3.455%.
CC(C)(C)CC(=O)N1CCC(n2cc(C3(O)CCCC3)nn2)CC1 gave ClpP1P2: 0.4779%; Pks13 thioesterase: -22.98%; MtTrpRS: -1.961%.
Cn1cc(C(=O)CC2CCCN2C(=O)c2coc3ccccc23)cn1 (stereo not given) gave ClpP1P2: -9.501%; Pks13 thioesterase: -2.412%; MtTrpRS: 3.644%.
COc1cccc(F)c1C(C)NC(=O)NCCc1ccc(C)nc1 (stereo not given) gave ClpP1P2: -8.537%; Pks13 thioesterase: 0.05248%; MtTrpRS: 13.42%.
COc1ccc2c(c1)OC1(CCN(Cc3cccc(C)c3)CC1)CC2=O gave ClpP1P2: -16.95%; Pks13 thioesterase: -0.4472%.
Cc1cc(NC(=O)C(C)N2CCN(c3nc(C)ns3)CC2)on1 (stereo not given) gave ClpP1P2: 5.988%; Pks13 thioesterase: 5.915%; MtTrpRS: 1.979%.
CCC1=N[C@@]2(CC[C@@H]3CN(Cc4ccc(F)cc4)C[C@@H]32)C(=O)N1C gave ClpP1P2: -12.87%; Pks13 thioesterase: -6.103%.
COc1ncccc1CNC(=O)c1c(C)oc(C)c1C gave ClpP1P2: -31.37%; Pks13 thioesterase: -18.08%; MtTrpRS: -3.64%.
O=C(c1cccnc1)N1CCN2C[C@H](OCc3ccccc3)C[C@H]2C1 gave ClpP1P2: 4.244%; Pks13 thioesterase: -19.66%; MtTrpRS: -4.691%.
O=C(C1CC1)N1CCCC(c2nc(O)cc(-c3ccncc3)n2)C1 (stereo not given) gave ClpP1P2: -1.059%; Pks13 thioesterase: -17.16%.
Cc1ccc(OCCN(C)C(C)c2cccc(S(N)(=O)=O)c2)cc1 (stereo not given) gave ClpP1P2: -16.47%; Pks13 thioesterase: -10.74%; MtTrpRS: -0.2839%.
COCC1CN(C(=O)Cc2ccccn2)Cc2ncn(C)c21 (stereo not given) gave ClpP1P2: 3.994%; Pks13 thioesterase: -32.02%; MtTrpRS: 3.991%.
CCc1nnsc1C(=O)N1CCCN(Cc2ccccc2)CC1 gave ClpP1P2: -5.442%; Pks13 thioesterase: -10.41%; MtTrpRS: 2.685%.
C[C@@H]1CN(C(=O)Cc2ccsc2)C[C@]12CCN(CCN(C)C)C2=O gave ClpP1P2: -3.786%; Pks13 thioesterase: -39.77%; MtTrpRS: -5.638%.
CCNC(=O)NC[C@@H]1C=C(C)[C@H](CC(=O)NCCN(C)C)C[C@H]1C(C)C gave ClpP1P2: -10.13%; Pks13 thioesterase: -5.788%; MtTrpRS: 0.5271%.
COc1cccc(CN(C)Cc2cccc(C#N)c2)c1OC gave ClpP1P2: -4.087%; Pks13 thioesterase: -4.159%; MtTrpRS: -3.752%.
NC(=O)CC1CCN(C(=O)c2cnc(-c3ccccc3F)s2)CC1 gave ClpP1P2: -3.242%; Pks13 thioesterase: -9.069%; MtTrpRS: -18.18%.

The last 2 entries again:

Result for COc1cccc(CN(C)Cc2cccc(C#N)c2)c1OC was ClpP1P2: -4.087%; Pks13 thioesterase: -4.159%; MtTrpRS: -3.752%.
Result for NC(=O)CC1CCN(C(=O)c2cnc(-c3ccccc3F)s2)CC1 was ClpP1P2: -3.242%; Pks13 thioesterase: -9.069%; MtTrpRS: -18.18%.